Drawing on PubChem BioAssay AID493014 (National Center for Advancing Translational Sciences (NCATS), 2011), this text covers AC50 for 40 compounds.

This test is described as follows: qHTS Assay to Find Inhibitors of Chronic Active B-Cell Receptor Signaling. To be noted: ABC-DLBCL IkBa-CBG/CBR reporter, luminescence ratio (green luciferase fused to IkBa over red control in TMD8 lymphoma cells), 4 h. In short, it runs like this:
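Cell line TMD8 (human ABC DLBCL), stably expressing tet-inducible CBG68-IkBa fusion and CBR; IMDM/0.5% FBS; cpd up to 46 uM; dox induction, 4 h, 37C/5% CO2; dual luminescence; green/red ratio; MG132 control.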
(In general: qHTS replaces the single test concentration by a dilution series.)

Setting [1] is: measured here: CBR red luminescence, cell number.
[2] abbreviates: measured here: IkBa-CBG green luminescence.

Broadly, the AC50 is the concentration giving half of the maximal activity seen.

Each structure is given as a SMILES string. Some of the results follow. The main result of the screen is listed elsewhere. These columns were measured beside it and carry no call. The list favours compounds with an active or inconclusive main result. Words in brackets tell the shape of the fitted curve; partial curves, single points and poor fits give uncertain potencies.

Regarding `Cc1cc(NC(=S)Nc2cccnc2)ccc1Br`, the AC50 under setting [1] was 11.2 µM [rising, partial curve].

Consider `O=C(CSc1nnnn1CCCO)Nc1ccc2c(c1)OCO2`, for which the AC50 under setting [1] was 35.5 µM [rising, single point].

Turning to `CCCCC(=O)NC(=S)NNC(=O)CC#N`, under setting [1], the AC50 is 4.61 µM [falling, full curve, poor fit].

As for `Cc1ccccc1-c1ccc(Nc2ccc(C(=O)N3CCOCC3)cc2)nn1`, under setting [1], the AC50 was 11.2 µM [falling, partial curve].

With `O=C(c1cc(-c2cccc(Cl)c2)on1)N1CCc2ccccc2C1`, the AC50 under setting [1] was 2.51 µM [rising, full curve].

Take `CCN(CC(=O)Nc1ccc(NC(C)=O)cc1)C(=O)c1cccc2ccccc12`: the half-maximal activity concentration (AC50) under setting [1] was 29.1 µM [rising, partial curve, poor fit].

For the compound `O=C(Nc1ccc(F)cc1)c1cn(-c2ccccc2)nc1-c1ccncc1`, the AC50 by setting is: under setting [1], 0.411 µM [falling, full curve, poor fit]; under setting [2], 14.6 µM [rising, partial curve, poor fit].

Regarding `Cc1ccc(C(=O)NC2CCN(CC(=O)Nc3ccccc3Cl)CC2)cc1`, under setting [1], the AC50 was 7.94 µM [rising, partial curve, poor fit].

Regarding `Cc1nn(Cc2ccc(C(=O)O)o2)c(C)c1[N+](=O)[O-]`, the AC50 under setting [1] was 6.31 µM [rising, single point].

For `Cc1ccccc1-c1nnc(SCC(=O)c2c(N)n(C3CC3)c(=O)[nH]c2=O)o1`, the AC50 under setting [1] was 6.51 µM [rising, single point].

On to `O=C(Cn1nc(-c2nn(CC(=O)c3ccccc3)c3[n+]2CCCCC3)[n+]2c1CCCCC2)c1ccccc1`, for which the concentration at half-maximal activity (AC50) under setting [1] was 0.0891 µM [rising, full curve, poor fit].

`O=C(Nc1ccccc1)c1ccc(CSc2ccccn2)cc1`: the AC50 under setting [1] was 17.8 µM [falling, single point].

Turning to `O=C(Nc1ccccc1)C1=C[C@@H](c2ccc(Br)cc2)C[C@@H](OCCCCO)O1`, the AC50 under setting [1] is 11.2 µM [falling, partial curve, poor fit].

As for `CN(c1ccccc1)S(=O)(=O)c1ccc(C(=O)Nc2nccs2)cc1`, the AC50 under setting [1] is 0.731 µM [falling, partial curve, poor fit].

Regarding `Cc1ccc2cc3c(N)c(C(=O)N4CCOCC4)sc3nc2c1`, the AC50 under setting [1] was 10 µM [falling, partial curve, poor fit].

On to `O=C(O)/C=C/C(=O)N(CC1CCCO1)C1CC(=O)N(c2c(Cl)cccc2Cl)C1=O` (stereo unspecified), for which the AC50 under setting [1] is 17.8 µM [falling, partial curve].

For `CCN(CC(=O)NCc1ccc(Cl)cc1)C(=O)Cc1ccccc1[N+](=O)[O-]`, the half-maximal activity concentration (AC50) under setting [1] was 0.398 µM [falling, full curve].

Turning to `COc1ccc2[nH]c3c(=O)n(CCCCC(=O)N4CCCC4)c(=S)[nH]c3c2c1`, the AC50 under setting [1] is 7.08 µM [falling, partial curve, poor fit].

Take `COc1ccc(N2CCN(CC(=O)Nc3nnc(-c4ccccc4)s3)CC2)cc1`: under setting [1], the AC50 is 11.6 µM [falling, partial curve].

As to `COc1cc(-c2nn3c(C4CCCCC4)nnc3s2)cc(OC)c1OC`, under setting [1], the AC50 was 35.5 µM [rising, single point].

Turning to `O=C(CCN1C(=O)/C(=C/c2cccc(Br)c2)SC1=S)Nc1cccnc1`, the AC50 under setting [1] is 10 µM [falling, partial curve].

On to `O/N=C/c1ccn(-c2ccc(Br)cc2)c1`, for which the AC50 under setting [1] is 0.794 µM [rising, full curve, poor fit].

As for `Cc1cc(C)c2nc(NC(=O)CN3C(=O)NC4(CCCC4)C3=O)sc2c1`, the AC50 under setting [1] was 20.6 µM [falling, partial curve, poor fit].

Turning to `C=CCn1c(SCC(=O)Nc2c(C)n(C)n(-c3ccccc3)c2=O)nc2sc(C)c(C)c2c1=O`, the AC50 under setting [2] was 18.4 µM [falling, partial curve, poor fit].

Regarding `N/C(=N\OC(=O)c1ccc2ccccc2c1)c1cccc([N+](=O)[O-])c1`, under setting [1], the AC50 is 3.26 µM [rising, full curve, poor fit].

Turning to `Nc1ccc(C(=O)c2cccs2)cc1`, the AC50 under setting [1] was 2.59 µM [rising, full curve, poor fit].

For `COc1ccc(N2CC(C(=O)O)CC2=O)cc1` (stereo unspecified), under setting [1], the AC50 was 23.1 µM [rising, partial curve, poor fit].

On to `COc1cccc(-c2cc3nc(-c4ccccc4)cc(N4CCCC(O)C4)n3n2)c1` (stereo unspecified), for which, under setting [1], the AC50 was 17.8 µM [falling, partial curve, poor fit].

Consider `CC(C)(C)NC(=O)COC(=O)c1ccccc1OCC(=O)Nc1ccc(Br)cc1`, for which the AC50 under setting [1] is 20.6 µM [falling, single point].

In the case of `CCc1cc2c(=O)n(Cc3ccco3)c(SCC(=O)N3CCCc4ccccc43)nc2s1`, the AC50 under setting [1] was 7.94 µM [falling, partial curve].

In the case of `CCCCNC(=O)c1cc2c(=O)n3cccc(C)c3nc2n1C`, under setting [1], the AC50 was 32.6 µM [rising, single point].

On to `O=C(Nc1ccc(N2CCOCC2)cc1)c1cccc2c(Br)cccc12`, for which, under setting [1], the AC50 is 10 µM [rising, single point].

As to `COc1ccccc1OCCn1cc(/C=C(\C#N)C(=O)NCc2cccs2)c2ccccc21`, the AC50 under setting [1] was 29.1 µM [rising, single point].

For `CC1(C)OC(=O)C(=NNc2ccccc2[N+](=O)[O-])C(=O)O1`, the AC50 under setting [1] is 15.8 µM [falling, partial curve, poor fit].

As for `O=C(/C=C/c1ccnc2ccccc12)c1cccs1`, the concentration at half-maximal activity (AC50) under setting [1] was 8.91 µM [falling, partial curve].

With `CN1CCN(c2ccc(CNC(=O)c3cc4ccccc4o3)cc2)CC1`, the AC50 under setting [1] was 2.24 µM [falling, full curve].

Turning to `O=c1c2[nH]cnc2n(-c2cccc(Br)c2)c(=O)n1Cc1ccccc1`, the AC50 under setting [1] is 0.1 µM [rising, full curve, poor fit].

In the case of `COc1ccccc1CCC(=O)Nc1ccc2c(c1)CN(CCCn1cccn1)CC2`, the AC50 under setting [1] was 0.126 µM [falling, full curve, poor fit].

As to `O=S(=O)(c1ccccc1)N1CCCC1c1nc2ccccc2s1` (stereo unspecified), under setting [1], the AC50 is 3.16 µM [falling, partial curve, poor fit].

Consider `O=C(O)c1ccc(Nc2ncnc3ccccc23)cc1`, for which the AC50 under setting [1] is 7.94 µM [falling, partial curve].
